# Some of the results follow. Shown are side measurements of this screen, not its main read-out; they come without a call. Most of these compounds were active or inconclusive in the main read-out, so they are no random draw. Words in brackets tell the shape of the fitted curve; partial curves, single points and poor fits give uncertain potencies.
# Assay: qHTS Assay for Lipid Storage Modulators in Drosophila S3 Cells;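 for cell number change: cells counted by Cell Tracker Red CMTPX staining in the red channel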
# Conditions: BODIPY lipid droplet fluorescence, 18-24 h; for cell number change: measured here: cell count max response, cells fed with added oleic acid
# Procedure, shortened: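 Drosophila S3 cells got compounds at several concentrations plus oleic acid (400 uM solution). Laser-scanning cytometry with 488 nm excitation read lipid droplets at 500-530 nm and cells at 575-640 nm. Percent activity was relative to 20 uM Triacsin C.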
# [1] = measured here: lipid fluorescence (Fed channel) AC50, cells fed with added oleic acid
# [2] = measured here: cell number channel AC50, cells fed with added oleic acid
smiles,measurement,setting,value
CCOC(=O)c1cnc2nc(C)nn2c1N,cell number change,,-16.7%
same,AC50,[1],"23.1 µM [falling, single point]"
O=C(O)C1(NS(=O)(=O)c2ccc(F)c(Cl)c2)CCCCC1,cell number change,,7.05%
O=C(NCCN1CCCC1)c1ccc(CS(=O)(=O)c2c(Cl)cccc2Cl)o1,cell number change,,1.45%
Cc1cnc(C(=O)NCc2ccc(F)cc2)cn1,cell number change,,20%
same,AC50,[2],"6.51 µM [rising, single point]"
CCOC(=O)c1c(C)oc2cc(Br)c(O)c(Br)c12,cell number change,,-43.6%
same,AC50,[2],"32.6 µM [falling, partial curve]"
same,AC50,[1],"23.1 µM [falling, partial curve]"
O=C(O)C1CCCCC1C(=O)Nc1ccc(Cl)cc1Cl (stereo not given),cell number change,,-54.1%
same,AC50,[2],"29.1 µM [falling, single point]"
COc1ccc(-c2cc(-c3nnc(COC(=O)CC4CCCC4)o3)c3ccccc3n2)cc1OC,cell number change,,25.3%
same,AC50,[2],"2.06 µM [rising, full curve, poor fit]"
same,AC50,[1],"1.84 µM [rising, full curve, poor fit]"
Cc1cccc(-n2cc(CNCCN3CCOC3=O)c(-c3cccc(F)c3)n2)c1,cell number change,,14.3%
same,AC50,[1],"7.31 µM [rising, partial curve, poor fit]"
NNC(=O)c1ccc(O)cc1O,AC50,[1],"2.31 µM [rising, full curve]"
CCCc1cc(=O)n2[nH]c(-c3ccc(Cl)cc3)cc2n1,cell number change,,-30.4%
same,AC50,[2],"29.1 µM [falling, single point]"
O=C(NCCC(=O)N1CCCCCCC1)c1ccc(Br)cc1,cell number change,,12.9%
same,AC50,[2],"0.82 µM [falling, full curve]"
same,AC50,[1],"0.82 µM [falling, full curve]"
O=S(=O)(c1ccc(Cl)cc1)n1c(Cc2ccccc2)nc2ccccc21,cell number change,,-4.05%
same,AC50,[1],"29.1 µM [rising, single point]"
Cc1nn(C)cc1CNC(=O)Nc1cccc(Cl)c1,cell number change,,21.8%
same,AC50,[2],"6.51 µM [falling, single point]"
CCc1ccc(-c2csc(NC(=O)C3CC(=O)N(c4ccc5c(c4)OCCO5)C3)n2)cc1 (stereo not given),cell number change,,-3.6%
same,AC50,[2],"0.82 µM [rising, full curve, poor fit]"
CCOC(=O)c1sc(NC(=O)CSc2nncn2C)nc1C,AC50,[1],"9.2 µM [rising, partial curve]"
CS(=O)(=O)N1CCC(C(=O)Nc2ccc(F)c(Cl)c2)CC1,cell number change,,-7.33%
same,AC50,[1],"6.51 µM [rising, single point]"
CCc1sc(C(=O)Nc2cc(Cl)ccc2N2CCCCC2)cc1C,AC50,[1],"3.66 µM [rising, single point]"
CCSc1cc(C)nc2ncnn12,cell number change,,43%
same,AC50,[2],"29.1 µM [rising, single point]"
same,AC50,[1],"29.1 µM [rising, single point]"
Cc1cc(F)ccc1S(=O)(=O)Nc1ccccc1C(=O)Nc1ccccc1-c1nc2ccccc2[nH]1,cell number change,,-83.6%
same,AC50,[2],"29.1 µM [falling, single point]"
same,AC50,[1],"0.731 µM [falling, single point]"
CCn1c(CNC(=O)c2ccccc2F)nnc1SCCOc1ccccc1,cell number change,,1.92%
same,AC50,[2],"4.11 µM [rising, partial curve, poor fit]"
N#CCSc1nc(-c2ccccc2)c2cc(Cl)ccc2n1,cell number change,,5.26%
same,AC50,[1],"16.4 µM [rising, single point]"
Cn1cccc1C(=S)N1CCOCC1,cell number change,,-27.8%
same,AC50,[2],"0.291 µM [falling, full curve, poor fit]"
same,AC50,[1],"0.206 µM [falling, full curve, poor fit]"
CC(C)C[C@H]1CN=C(Nc2ccccc2)N1CCCCc1ccccc1,cell number change,,-4.79%
same,AC50,[1],"9.2 µM [falling, single point]"
COc1ccc(C(OC(=O)c2ccco2)C(=O)NC2CCCC2)cc1OC (stereo not given),cell number change,,-7.94%
COc1cccc(/C=C2/C(=O)NN(c3ccc(Br)cc3)C2=O)c1O,cell number change,,-36.3%
same,AC50,[2],"8.2 µM [falling, partial curve]"
same,AC50,[1],"29.1 µM [falling, single point]"
O=C(NC1CC1)C1CCC(=O)N1C1CCCC1 (stereo not given),AC50,[2],"0.146 µM [falling, full curve, poor fit]"
same,AC50,[1],"6.51 µM [falling, single point]"
Cc1ccc(NC(=O)COC(=O)C2CC(=O)N(Cc3ccccc3)C2)cc1F (stereo not given),cell number change,,-23.6%
same,AC50,[2],"0.116 µM [falling, full curve, poor fit]"
same,AC50,[1],"0.58 µM [falling, single point]"
COC(=O)c1ccc(OC)c(CN2CCCN(Cc3cc(C)ccc3C)S2(=O)=O)c1,cell number change,,19.9%
same,AC50,[2],"2.91 µM [rising, single point]"
O=C(N/N=C/c1cc(Cl)cc([N+](=O)[O-])c1O)c1cccc(S(=O)(=O)N2CCOCC2)c1,cell number change,,23%
same,AC50,[1],"29.1 µM [rising, single point]"

# A section taken from the entries so far, as a working copy:
smiles,measurement,setting,value
CCSc1cc(C)nc2ncnn12,AC50,[1],"29.1 µM [rising, single point]"
Cc1cc(F)ccc1S(=O)(=O)Nc1ccccc1C(=O)Nc1ccccc1-c1nc2ccccc2[nH]1,cell number change,,-83.6%

# Quoted at random: 2 entries already listed, in no set order.
smiles,measurement,setting,value
Cc1cc(F)ccc1S(=O)(=O)Nc1ccccc1C(=O)Nc1ccccc1-c1nc2ccccc2[nH]1,AC50,[1],"0.731 µM [falling, single point]"
CCSc1cc(C)nc2ncnn12,AC50,[1],"29.1 µM [rising, single point]"

# From PubChem BioAssay AID2685 (National Center for Advancing Translational Sciences (NCATS), 2010)
